{"source": "patent US20090137626A1", "about": "“Pharmaceutical Composition Containing PPARgamma Agonist” (priority 2005, published 2009)", "system": "Male Zucker diabetic fatty (ZDF) rats", "test": "Test Example 1: elimination of blood lactate after intravenous sodium lactate load (blood lactate AUC 0 to 60 minutes)", "assay_type": "in vivo", "settings": "Group A: Compound A 300 mg/kg oral, 1 hour before sodium lactate 0.1 g/kg i.v., compared with control group (P<0.05, t-test), FIG. 1", "from_the_text": "Improvement Effects by Concomitant Use of 5-{4-[(6-methoxy-1-methyl-1H-benzimidazol-2-yl)methoxy]benzyl}thiazolidine-2,4-dione hydrochloride (Compound B) for Delayed Elimination of Lactate caused by Administration of Metformin (hereinafter referred to as-Compound A)\nMale Zucker diabetic fatty (ZDF) rats (sold by Japan Charles River, Inc.) age 10 weeks presenting diabetes-were divided into four groups consisting of a control group, a Compound A dose group (Group A), a Compound B treatment control group (Group B) and a Compound A-Compound B dose group (Group B+A). The animals of Group B and Group B+A were given free access for 1 week to Compound B mixed in powdered feed (FR-2 Powdered Laboratory Rodent Diet, Funabashi Farm Co., Ltd.) to a concentration of 0.001%. […]\nCompound A was orally administered at 300 mg/kg to the animals of Group A and Group B+A one week after the start of treatment with Compound B, while the animals of the control group and Group B were orally administered dosing solvent only. […] Blood samples were collected from the caudal vein immediately before and 5, 15, 30, 45 and 60 minutes after administration of sodium lactate, and blood lactate levels were measured using the Lactate Pro LT-1710 (Arkray, Inc.). The areas under the curve for blood lactate concentration (blood lactate AUC) were calculated from blood lactate levels from 0 to 60 minutes measured for each animal. […]"}
{"smiles": "CN(C)C(=N)NC(=N)N.Cl", "note": "[Compound A, 1,1-dimethylbiguanide hydrochloride, reference compound]", "values": [{"measurement": "blood lactate AUC", "value": "increased significantly"}]}
